Values joined by “and” are separate entries in the source; they are usually repeats but may differ in a detail not shown here. Equal entries are not always repeated. Structures can show the parent of a compound that is named as a salt.
assay: Experimental velocity of a fragrance ingredient from model powder detergent in water (olfactory detection at 60 cm); settings: Table 2, Class 2 ingredients, 10 g model powder detergent in 2 liters of water, 25° C., dosed at 0.005 to 0.1 wt %

Row | Compound | EV (Experimental velocity)
1 | 5-alkyldihydro-2(3H)-furanone | 8 cm/s
2 | CC(O)COCC(C)O (stereo not shown) [1,1′-oxybis(propan-2-ol)] | 8 cm/s and 6 cm/s
3 | C=CCCC(=O)C1=CC(C)(C)CCC1 [1-(3,3-dimethyl-1-cyclohexen-1-yl)-4-penten-1-one] | 5.5 cm/s
4 | C=C(C)C1CC=C(C)CC1 (stereo not shown) [1-methyl-4-(prop-1-en-2-yl)cyclohex-1-ene] | 7 cm/s and 5.2 cm/s
5 | CC1=CCC(=C(C)C)CC1 [1-methyl-4-(propan-2-ylidene)cyclohex-1-ene] | 8 cm/s
6 | CC1CCC2C(C)(C)C3CC12CC1OC(C)(C)OC13C (stereo not shown) [2,2,5,8,8,9a-hexamethyloctahydro-3aH-4a,9-methanoazuleno[5,6-d][1,3]dioxole] | 6 cm/s
7 | CC1=CCC2CC1C2(C)C (stereo not shown) [2,6,6-trimethylbicyclo[3.1.1]hept-2-ene] | 6 cm/s
8 | CC(C)=CCCC(C)C=O (stereo not shown) [2,6-dimethylhept-5-enal] | 8 cm/s
9 | O=CC[C@H]1C[C@H]2C[C@@H]1[C@@H]1CCC[C@H]21 [2-((3aR,4S,5R,7S,7aR)-octahydro-1H-4,7-methanoinden-5-yl)acetaldehyde] | 5.3 cm/s
10 | C=CCCC(=O)C(=C)C1CCCCC1 [2-cyclohexyl-1,6-heptadien-3-one] | 5 to 8 cm/s
11 | CCOc1cc(C)ccc1O [2-ethoxy-4-methylphenol] | 6 cm/s
12 | Cc1ccc(C(C)C)c(O)c1 [2-isopropyl-5-methylphenol] | 7 cm/s
13 | COc1ccc2ccccc2c1 [2-methoxynaphthalene] | 6 cm/s
14 | CCCCCCCCC(C)C=O (stereo not shown) [2-methyl decanal] | 7 cm/s
15 | CCCCCCC=CC#N [2-nonenenitrile] | 6 cm/s
16 | CCCCCC1CCCC1=O (stereo not shown) [2-pentylcyclopentan-1-one] | 7 cm/s
17 | CC(CC=O)CC(C)(C)C (stereo not shown) [3,5,5-trimethylhexanal] | 5.2 cm/s
18 | CC(=O)OCCC(C)CCC=C(C)C (stereo not shown) [3,7-dimethyloct-6-en-1-yl acetate] | 5.1 cm/s
19 | CC(C)=CCCC(C)CC#N (stereo not shown) [3,7-dimethyloct-6-enenitrile] | 6 cm/s
20 | C=CC(C)(O)CCC=C(C)C (stereo not shown) [3,7-dimethylocta-1,6-dien-3-ol] | 6 cm/s
21 | C=CC(C)(CCC=C(C)C)OC(C)=O (stereo not shown) [3,7-dimethylocta-1,6-dien-3-yl acetate] | 6 cm/s
22 | CC(C=O)Cc1ccc(C(C)(C)C)cc1 (stereo not shown) [3-(4-(tert-butyl)phenyl)-2-methylpropanal] | 6 cm/s
23 | CCc1ccc(CC(C)(C)C=O)cc1 [3-(4-ethylphenyl)-2,2-dimethylpropanal] | 6 cm/s
24 | CC1=CCC(C(C)CC=O)CC1 (stereo not shown) [3-(4-methylcyclohex-3-en-1-yl)butanal] | 6 cm/s

Row | Compound | EV (Experimental velocity)
25 | CCCCCC1=C(C)CCC1=O [3-methyl-2-pentylcyclopent-2-en-1-one] | 6 cm/s
26 | Cc1coc2ccc(O)cc12 [3-methylbenzofuran-5-ol] | 5.3 cm/s
27 | COC(=O)C=Cc1ccccc1 [3-phenyl 2-propenoic acid, methyl ester] | 8 cm/s
28 | CC(C)C(=O)OC1CC2CC1C1C=CCC21 (stereo not shown) [3a,4,5,6,7,7a-hexahydro-1H-4,7-methanoinden-5-yl isobutyrate] | 5.3 cm/s
29 | CCC(=O)OC1CC2CC1C1C=CCC21 (stereo not shown) [3a,4,5,6,7,7a-hexahydro-1H-4,7-methanoinden-5-yl propionate] | 6 cm/s
30 | C=CCc1ccc(O)c(OC)c1 [4-allyl-2-methoxyphenol] | 5.04 cm/s
31 | COc1ccc(C=O)cc1 [4-methoxybenzaldehyde] | 5.2 cm/s
32 | Cc1ncsc1CCO [4-methyl-5-thiazoleethanol] | 5 cm/s
33 | CC(=O)CCc1ccccc1 [4-phenylbutan-2-one] | 7 cm/s
34 | CC1=CC2CC(C=O)C1CC2C(C)C (stereo not shown) [8-isopropyl-6-methylbicyclo[2.2.2]oct-5-ene-2-carbaldehyde] | 6 cm/s
35 | CC1CCC2(CCC(=O)O2)CC1 (stereo not shown) [8-methyl-1-oxaspiro(4.5)decan-2-one] | 5 to 8 cm/s
36 | CC1(C)[C@@H]2CC[C@@]1(C)[C@H](O)C2 [(1R,2R,4R)-1,7,7-trimethylbicyclo[2.2.1]heptan-2-ol] | 7 cm/s
37 | CC1=C[C@@H](C)[C@@H](C=O)CC1 [(1S,2R)-2,4-dimethylcyclohex-3-ene-1-carbaldehyde] | 8 cm/s
38 | CC(C)(C)[C@@H]1CCCC[C@@H]1O [(1S,2S)-2-(tert-butyl)cyclohexan-1-ol] | 6 cm/s
39 | CCCOC(C)OCCc1ccccc1 (stereo not shown) [(2-(1-propoxyethoxy)ethyl)benzene] | 6 cm/s
40 | CC/C(C)=C\CC/C(C)=C\C#N [(2Z,6Z)-3,7-dimethylnona-2,6-dienenitrile] | 6 cm/s and 8 cm/s
41 | O=CC1CC[C@H]2[C@@H]3CC[C@@H](C3)[C@@H]12 (stereo partly drawn) [(3aS,4R,7S,7aR)-octahydro-1H-4,7-methanoindene-1-carbaldehyde] | 6 cm/s
42 | C/C=C/c1ccc(OC)cc1 [(E)-1-methoxy-4-(prop-1-en-1-yl)benzene] | 6 cm/s
43 | CC1=CCC(/C=C/C(C)(C)C(C)O)C1(C)C (stereo not shown) [(E)-3,3-dimethyl-5-(2,2,3-trimethylcyclopent-3-en-1-yl)pent-4-en-2-ol] | 5.1 cm/s
44 | CC(C)=CCC/C(C)=C/COC=O [(E)-3,7-dimethylocta-2,6-dien-1-yl formate] | 5.2 cm/s
45 | CC(=O)/C(C)=C/C1C(C)=CCCC1(C)C (stereo not shown) [(E)-3-methyl-4-(2,6,6-trimethylcyclohex-2-en-1-yl)but-3-en-2-one] | 6 cm/s
46 | CC1=CCC(/C=C/C(C)C(C)O)C1(C)C (stereo not shown) [(E)-3-methyl-5-(2,2,3-trimethylcyclopent-3-en-1-yl)pent-4-en-2-ol] | 6 cm/s
47 | CC(=O)/C=C/C1=C(C)CCCC1(C)C [(E)-4-(2,6,6-trimethylcyclohex-1-en-1-yl)but-3-en-2-one] | 7 cm/s
48 | CC(=O)/C=C/C1C(C)=CCCC1(C)C (stereo not shown) [(E)-4-(2,6,6-trimethylcyclohex-2-en-1-yl)but-3-en-2-one] | 8 cm/s

Row | Compound | EV (Experimental velocity)
49 | CC/C=C(\C)C(O)CCCCC (stereo not shown) [(E)-4-methyldec-3-en-5-ol] | 7 cm/s
50 | CCC/C=C/CCCCC=O [(E)-dec-6-enal] | 8 cm/s
51 | CCCCCCCCCC/C=C/C#N [(E)-tridec-2-enenitrile] | 6 cm/s
52 | C=CCCCCCCC/C=C/CC#N [(E)-trideca-3,12-dienenitrile] | 6 cm/s
53 | C/C=C/CCCCCCCC=O [(E)-undec-9-enal] | 7 cm/s
54 | CC/C=C\CCOC(=O)OC [(Z)-hex-3-en-1-yl methyl carbonate] | 7 cm/s
55 | c1ccc2[nH]ccc2c1 [Accord 1H-indole, 1H-indole] | 6 cm/s
56 | CCCCCCC=CC=O [Accord 2-nonenal, 2-nonenal] | 6 cm/s
57 | O=CC=Cc1ccccc1 [cinnamaldehyde] | 7 cm/s
58 | CCCCCCCCCCCC=O [dodecanal] | 6 cm/s
59 | CCCCCCCCCCCC#N [dodecanenitrile] | 6 cm/s
60 | CCOC(=O)C(C)C [ethyl isobutyrate] | 5.2 cm/s
61 | CCCCCC=O [hexanal] | 5.3 cm/s
62 | COC(=O)c1ccccc1C [methyl 2-methylbenzoate] | 7 cm/s
63 | CCCCCCCC=O [octanal] | 8 cm/s
64 | CC(=O)Oc1ccc(C)cc1 [p-tolyl acetate] | 6 cm/s
65 | CC1=CCC(C(C)(C)S)CC1 (stereo not shown) [para menth-1-ene-8-thiol] | 6 cm/s
66 | CC(C)C1CCC(CS)C(S)C1 (stereo not shown) [para menthane-2,7-dithiol] | 5 cm/s
67 | CC(=O)OCCc1ccccc1 [phenyl ethyl acetate] | 7 cm/s
68 | CCCCC/C=C/CCC=O [trans 4-decen-1-al] | 8 cm/s
69 | CCCCCCCCC/C=C/C=O [trans-2-dodecanal] | 6 cm/s
70 | CCCCCCCCCCC=O [undecanal] | 6 cm/s
